Results: PubChem BioAssay AID1508615 (Milbrandt Lab, Department of Genetics, Washington …, 2020)
Out of some 1,600 compounds screened, about 20 (1%) were called active.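 How the source made its calls: active means ratio of uncleaved NAD to its breakdown product ADP-ribose above 4, meaning the enzyme was inhibited; inactive means the rest.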 Some of the results follow.

Sequences of proteins named here, by UniProt entry; tags and fusion partners are left off. A change or cut given only in a name is not applied to a line headed by its entry.
UniProt Q6SZW1: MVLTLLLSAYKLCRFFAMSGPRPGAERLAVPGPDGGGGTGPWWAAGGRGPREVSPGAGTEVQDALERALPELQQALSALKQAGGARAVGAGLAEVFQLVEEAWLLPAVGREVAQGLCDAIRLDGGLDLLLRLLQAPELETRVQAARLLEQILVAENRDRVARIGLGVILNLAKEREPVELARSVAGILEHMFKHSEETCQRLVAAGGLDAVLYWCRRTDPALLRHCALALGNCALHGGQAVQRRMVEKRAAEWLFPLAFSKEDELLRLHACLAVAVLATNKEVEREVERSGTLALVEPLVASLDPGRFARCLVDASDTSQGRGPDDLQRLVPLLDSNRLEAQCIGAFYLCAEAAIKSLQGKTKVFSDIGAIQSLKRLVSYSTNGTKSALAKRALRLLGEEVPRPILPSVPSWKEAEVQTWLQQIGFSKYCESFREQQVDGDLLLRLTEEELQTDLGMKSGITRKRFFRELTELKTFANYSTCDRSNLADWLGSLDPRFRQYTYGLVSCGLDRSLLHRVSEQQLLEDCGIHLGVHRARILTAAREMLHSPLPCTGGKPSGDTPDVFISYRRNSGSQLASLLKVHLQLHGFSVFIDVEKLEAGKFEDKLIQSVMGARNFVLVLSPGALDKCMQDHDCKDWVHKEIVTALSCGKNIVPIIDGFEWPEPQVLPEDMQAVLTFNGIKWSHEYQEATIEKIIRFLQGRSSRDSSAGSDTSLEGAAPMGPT

The molecules below were run against NAD(+) hydrolase SARM1 (Homo sapiens) (UniProt Q6SZW1) (assay: inhibition of SAM-TIR NAD hydrolysis to ADPR – cell lysate, HPLC readout, primary screen (AID 1508615;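 further: substrate NAD at 5 µM with 60 min at 37 °C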)). Settings: HEK293T SAM-TIR lysate, NAD/ADPR ratio by HPLC; at 5 µM; hits give high values.

NAD/ADPR ratio, inactive:
Cn1c(=O)c2c(nc(Cc3ccc(N)cc3)n2C)n(C)c1=O 3
c1ccc(-c2nnc(-c3ccccn3)s2)nc1 3
Nc1n[nH]c(-c2ccccc2)n1 3
COc1ccc2nc3cc(Cl)ccc3c(C#N)c2c1 3
Cc1ccc(N=Nc2c(O)ccc3n[nH]nc23)cc1 3
Clc1nc(Oc2ccccc2)nc(-c2cn(-c3ccccc3)c3ccccc23)n1 3
N#C/C(=C\c1ccc[nH]1)C(=O)c1ccccc1 3
Cn1cnc([N+](=O)[O-])c1Sc1n[nH]c(N)n1 3
Oc1ccccc1-n1c(-c2ccccc2)ccc1-c1ccccc1 3
C=CCOc1ccnc(-c2ccccc2)n1 3
CC1CC(O)C2C3(C)CCCC2(COC3=O)C12CCC1(CCOC1=O)O2 (centres undefined) 3
C(=C\c1ccccn1)/c1ccccn1 3
CC(=O)OCc1cc(-c2nc3ccccc3[nH]c2=O)nn1-c1ccc(Cl)cc1 3
c1ccc(-c2ccc(-c3nccc4ccccc34)[nH]2)cc1 3
N#CC1C=Cc2c(ccc3ccccc23)N1C(=O)c1ccccc1 (centres undefined) 3
COc1ccc(CN2CCOC2=O)cc1OC 3
ONC(=NCc1ccccc1)c1ccccc1 3
CS/C(=C\c1ccc(C(=O)c2ccc(C)cc2)n1C)S(C)=O (centres undefined) 3
Cc1cc(=O)oc2cc(OS(C)(=O)=O)ccc12 3
Cc1ccc(C(C)C)cc1NC(=O)Nc1ccc([N+](=O)[O-])cc1 3
c1ccc(-c2ccc3c(c2)NCCN3)cc1 3
O=c1oc(-c2ccccc2)c(-c2ccccc2)c2ccccc12 3
O=C(Oc1ccccc1)c1cccc2cccc(C(=O)Oc3ccccc3)c12 3
O=C(NC1CCCCC1)c1cc2ccccc2cc1O 3
CSc1cccc(NC(=O)Nc2nc3c(C)cccc3s2)c1 3
Nc1nc(N)c2cc(Sc3ccc4ccccc4c3)ccc2n1 3
Clc1ccc(-c2c(C3=NCCCN3)nnn2-c2ccc(Cl)cc2)cc1 3
CCOC(=O)c1c(NC(=S)NC)sc2c1CCCC2 3
CCOC(=O)C1=C(Nc2ccc(OC)cc2)C(N)=NC1=N 3
COC1=C[C@@H](C)[C@@H]2C[C@H]3OC(O)C[C@H]4C(C)=C(OC)C(=O)[C@H]([C@@]2(C)C1=O)[C@@]34C (some centres undefined) 3
N#CCc1cnc2ccccc2n1 3
O=C(Nc1cccnc1)c1cccc([N+](=O)[O-])c1 3
O=C(c1ccc(Cl)nc1)c1cccs1 3
c1ccc2[nH]c(-c3ccncc3)nc2c1 3
O=c1ccc(Cl)n[nH]1 3
Cc1cc(C)n(C(N)=NC(=O)c2ccc([N+](=O)[O-])cc2)n1 3
Cc1ccc(-c2nc(-c3nccc4ccccc34)oc2-c2ccccc2)cc1 3
S=c1nc[nH]c2c1ncn2C1CCCC1 3
Cc1n[nH]c2c([N+](=O)[O-])c(=O)[nH]c(=O)n12 3
Cc1ccc([N+](=O)[O-])cc1NC(=O)Nc1ccc(S(N)(=O)=O)cc1 3
COc1cccc(OCC(O)CN2CCN(c3ccccc3)CC2)c1 (centres undefined) 3
CCOC(=O)Cc1cc(=O)[nH]n(-c2ccccc2)c1=O 3
Cc1ccc(C#CC(C)(O)C(C)(C)C)cn1 (centres undefined) 3
O=C(Nc1nc2ccccc2s1)Nc1ccc([N+](=O)[O-])cc1Cl 3
COc1cc2c(c(OC)c1O)C(=O)CO2 3
COc1ccc(C2OC3=C(Nc4cc(C)c(C)cc4N3)C2=O)cc1 (centres undefined) 3
OCC(O)C1OCOC(C(O)CO)C1O (centres undefined) 3
CO[C@@]12[C@H](COC(N)=O)C3=C(C(=O)C(C)=C(N)C3=O)N1C[C@@H]1N[C@@H]12 3
c1ccc(-c2nn(-c3ccccc3)[n+](-c3ccccc3)n2)cc1 3
COc1cc(Cl)c(CC(=O)c2c[nH]c3ccccc23)cc1OC 3
Nc1ccc(C(=O)Nc2cccc(N)c2)cc1 3
O=C(COc1ccc([N+](=O)[O-])cc1Cl)N1CCOCC1 3
C#CC(c1ccccc1)(c1ccccc1)n1ccnc1 3
Clc1ccc(-c2nc(-c3cc4cc(Cl)ccc4o3)cs2)cc1 3
CCCCC[C@H](O)/C=C/[C@@H]1[C@@H](C/C=C\CCCC(=O)O)[C@@H](O)C[C@H]1O 3
COc1cccc(NC(=S)Nc2ccc(O)cc2)c1 3
CC1CC(C)(C)C2=NCCN21 (centres undefined) 3
CC1=NN(c2ccccc2)C(=O)C1N=Nc1ccc(S(N)(=O)=O)cc1 (centres undefined) 3
O=C1CCC(c2ccccc2)(c2ccccc2)CC1 3
Cc1ccn2c(C(C)O)nnc2c1 (centres undefined) 3
O=C(O)CCC(=O)c1ccc2ccc3cccc4ccc1c2c34 3
Nc1ccc(C(=O)Nc2ccc(Nc3ccncc3)cc2)cc1 3
O=[N+]([O-])c1c(N2CCN(CCO)CC2)nc2ccccn12 3
c1ccc(-n2ncc3cccnc32)cc1 3
CCC(C)NC(=O)CC(C)C (centres undefined) 3
CC(/C=C1\NC(=S)NC1=O)=C\c1ccccc1 3
CCCN(CCC)CC(=O)N1CC(=O)Nc2ccccc21 3
Cc1ccnc(NC(c2ccccc2)c2ccc3cccnc3c2O)c1 (centres undefined) 3
O=c1[nH]c(=S)c2ncn(-c3ccccc3)c2[nH]1 3
COc1ccc(-c2cc3ccccc3[nH]2)cc1 3
Nc1ccnn1-c1ccccc1 3
O=C(O)Cc1sc(=O)[nH]c1O 3
O=C1C(=Nc2cccc(Cl)c2)CC(c2ccc(Cl)cc2)N1c1cccc(Cl)c1 (centres undefined) 3
Cc1ccc(S(=O)(=O)CCOC(=O)CNC(=O)OCc2ccccc2)cc1 3

Looked up by compound from the entries so far (5):
NAD/ADPR ratio, inactive:
CCOC(=O)C1=C(Nc2ccc(OC)cc2)C(N)=NC1=N 3
c1ccc(-c2ccc3c(c2)NCCN3)cc1 3
CS/C(=C\c1ccc(C(=O)c2ccc(C)cc2)n1C)S(C)=O (centres undefined) 3
O=c1[nH]c(=S)c2ncn(-c3ccccc3)c2[nH]1 3
N#CC1C=Cc2c(ccc3ccccc23)N1C(=O)c1ccccc1 (centres undefined) 3
